Paper PMC5608913
No constants are given. Whether binding was seen depends on the method and setting. In cells and extracts the contact can be indirect. Some binding calls cover weakened binding; strength is not graded here.

Sequences of proteins named here, by UniProt entry; tags and fusion partners are left off.
UniProt Q07157: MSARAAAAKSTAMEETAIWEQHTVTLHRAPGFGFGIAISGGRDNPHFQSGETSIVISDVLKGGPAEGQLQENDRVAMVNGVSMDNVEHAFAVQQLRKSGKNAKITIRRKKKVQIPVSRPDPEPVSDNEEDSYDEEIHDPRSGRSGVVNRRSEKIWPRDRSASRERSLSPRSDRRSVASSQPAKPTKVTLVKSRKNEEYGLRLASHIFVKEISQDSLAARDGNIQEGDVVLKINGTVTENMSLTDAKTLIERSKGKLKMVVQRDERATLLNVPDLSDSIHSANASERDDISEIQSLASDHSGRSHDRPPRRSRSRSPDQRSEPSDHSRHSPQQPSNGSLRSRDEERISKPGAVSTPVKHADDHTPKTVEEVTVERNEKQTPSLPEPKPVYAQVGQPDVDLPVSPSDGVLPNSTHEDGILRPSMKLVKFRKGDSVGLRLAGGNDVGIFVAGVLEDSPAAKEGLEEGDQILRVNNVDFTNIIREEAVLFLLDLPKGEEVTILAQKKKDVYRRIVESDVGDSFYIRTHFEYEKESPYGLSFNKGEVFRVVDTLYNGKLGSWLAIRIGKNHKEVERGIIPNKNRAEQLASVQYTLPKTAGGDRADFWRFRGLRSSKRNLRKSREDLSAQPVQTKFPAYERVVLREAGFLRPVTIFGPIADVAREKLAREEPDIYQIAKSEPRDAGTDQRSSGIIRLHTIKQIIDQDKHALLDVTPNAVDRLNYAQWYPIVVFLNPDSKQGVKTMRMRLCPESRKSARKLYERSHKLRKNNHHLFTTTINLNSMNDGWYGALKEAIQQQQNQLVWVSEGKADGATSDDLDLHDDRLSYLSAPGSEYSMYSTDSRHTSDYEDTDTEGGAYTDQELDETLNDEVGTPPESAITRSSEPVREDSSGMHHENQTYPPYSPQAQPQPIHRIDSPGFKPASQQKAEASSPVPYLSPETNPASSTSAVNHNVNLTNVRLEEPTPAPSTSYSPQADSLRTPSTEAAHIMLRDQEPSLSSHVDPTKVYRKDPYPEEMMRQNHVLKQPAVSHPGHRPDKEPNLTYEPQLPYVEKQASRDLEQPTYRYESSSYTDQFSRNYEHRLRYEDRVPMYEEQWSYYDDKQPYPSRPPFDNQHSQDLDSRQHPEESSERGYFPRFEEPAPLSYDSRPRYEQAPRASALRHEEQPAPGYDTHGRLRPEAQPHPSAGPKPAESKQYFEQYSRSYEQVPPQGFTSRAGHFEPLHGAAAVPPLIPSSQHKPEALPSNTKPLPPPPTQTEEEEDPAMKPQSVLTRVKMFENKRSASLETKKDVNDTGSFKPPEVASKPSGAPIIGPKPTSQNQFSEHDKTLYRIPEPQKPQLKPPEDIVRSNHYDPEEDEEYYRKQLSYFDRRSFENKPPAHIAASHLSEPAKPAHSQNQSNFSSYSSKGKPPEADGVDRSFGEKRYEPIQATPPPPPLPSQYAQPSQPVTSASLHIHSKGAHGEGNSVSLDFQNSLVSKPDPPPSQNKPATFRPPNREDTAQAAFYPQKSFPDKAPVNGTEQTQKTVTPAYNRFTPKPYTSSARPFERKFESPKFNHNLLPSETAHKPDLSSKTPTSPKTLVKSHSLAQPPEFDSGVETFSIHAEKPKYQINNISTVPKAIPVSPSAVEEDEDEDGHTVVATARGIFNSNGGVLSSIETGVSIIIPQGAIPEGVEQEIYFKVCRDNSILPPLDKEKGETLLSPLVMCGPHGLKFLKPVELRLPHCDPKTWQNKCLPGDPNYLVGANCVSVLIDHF

Molecular target: T1, endogenous Neph1 (human (endogenous in cultured human podocytes)) (UniProt Q96J84)
T1 sequence: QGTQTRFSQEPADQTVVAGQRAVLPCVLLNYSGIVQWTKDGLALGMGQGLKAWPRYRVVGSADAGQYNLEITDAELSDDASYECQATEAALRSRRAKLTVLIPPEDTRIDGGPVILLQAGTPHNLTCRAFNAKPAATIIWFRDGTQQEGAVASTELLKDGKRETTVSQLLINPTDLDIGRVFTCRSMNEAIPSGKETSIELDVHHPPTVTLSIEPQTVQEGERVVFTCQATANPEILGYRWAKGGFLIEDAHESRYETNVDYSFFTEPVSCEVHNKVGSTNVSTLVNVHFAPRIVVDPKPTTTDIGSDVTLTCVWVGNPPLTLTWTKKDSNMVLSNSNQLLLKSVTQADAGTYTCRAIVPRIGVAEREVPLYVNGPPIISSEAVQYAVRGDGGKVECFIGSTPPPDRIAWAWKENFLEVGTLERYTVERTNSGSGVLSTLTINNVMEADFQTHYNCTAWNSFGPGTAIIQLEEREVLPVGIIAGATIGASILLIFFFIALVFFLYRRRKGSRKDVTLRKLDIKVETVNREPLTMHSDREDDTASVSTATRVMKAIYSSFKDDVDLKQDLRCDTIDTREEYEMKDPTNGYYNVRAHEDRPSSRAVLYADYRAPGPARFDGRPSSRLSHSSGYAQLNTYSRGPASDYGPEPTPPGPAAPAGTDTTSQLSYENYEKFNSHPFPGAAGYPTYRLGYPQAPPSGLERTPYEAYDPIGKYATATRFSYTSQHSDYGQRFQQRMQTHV
Assay: co-IP; cultured human podocytes without or with ISD (1 uM or 5 uM) for more than 24 h; RIPA lysate; immunoprecipitation with Neph1 antibody, blot with ZO-1 antibody

binding: binds
Substance: endogenous ZO-1 (from UniProt Q07157 1-1748)
